Measured values as given in publication PMC4817257.
Results are given in words; binding and its absence hold for the method and conditions named. Binding seen in cells or lysates may run through a third protein. Some binding calls cover weakened binding; strength is not graded here.

Amino acid sequences for entries named in this document (tags omitted).
UniProt Q5AJU7: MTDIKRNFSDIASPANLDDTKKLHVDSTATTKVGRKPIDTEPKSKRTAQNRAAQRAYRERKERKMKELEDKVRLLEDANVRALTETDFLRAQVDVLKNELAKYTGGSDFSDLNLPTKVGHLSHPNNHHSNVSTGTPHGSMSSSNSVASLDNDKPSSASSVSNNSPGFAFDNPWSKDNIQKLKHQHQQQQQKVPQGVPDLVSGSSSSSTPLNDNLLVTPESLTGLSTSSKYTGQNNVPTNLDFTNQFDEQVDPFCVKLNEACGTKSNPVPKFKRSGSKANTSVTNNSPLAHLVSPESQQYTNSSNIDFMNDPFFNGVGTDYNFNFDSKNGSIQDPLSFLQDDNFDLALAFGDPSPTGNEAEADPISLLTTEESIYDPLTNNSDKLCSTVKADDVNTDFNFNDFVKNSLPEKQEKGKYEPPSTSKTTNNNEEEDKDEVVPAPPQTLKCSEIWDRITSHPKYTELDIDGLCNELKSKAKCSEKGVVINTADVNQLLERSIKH

Target: Crm1 nuclear export factor tagged with 2 Myc epitopes and 6 His residues (C. albicans) (UniProt Q9P8X1)
Experiment: co-IP; Crm1-MH immunoprecipitated with anti-Myc (9E10) agarose from total extracts of C. albicans cells (wild type or hog1Δ) before and after 5 mM H2O2, 1 M NaCl, 5 mM H2O2 plus 1 M NaCl (10-60 min) or 2 M sorbitol; precipitates treated with lambda phosphatase; Cap1 detected by Western blot with anti-Cap1 antibodies

Question: How did the binding turn out when “Cap1 AP-1-like transcription factor (from UniProt Q5AJU7 1-499)” was run?
Answer: binds
